# Assay results from US8207310B2, “Antibodies to proteolysis inducing factor (PIF) receptor and methods of use thereof” (Ashton University, priority 2006, dated 2012).
# At least one structure is not confirmed: it was looked up by name or label, or the drawing left a doubt.
# Test system: PIF receptors on C2C12 membranes
# Experiment: Competitive binding of [35S]PIF to C2C12 membranes
# Design: species or system mouse
# Details: result in words
# Protocol: Competitive binding of [^35S]PIF C2C12 membranes (200 μg) in PBS (250 μl) were incubated with 1, 5, 10, 50, 100, 500 or 1000 ng of either monoclonal antibody, chondroitin, dermatan or heparan sulfate and 20 nM (480 ng) of [^35S]PIF overnight at 4° C. The bound radioactivity was determined from the radioactivity in the pellet obtained by centrifugation at 13,000 g for 5 min.
# The Kaff was determined according to a modification (Clark, B. R. and Todd, C. W. Avidin as a precipitant for biotin-labelled antibody in a radioimmunoassay for carcinoembryonic antigen. Anal. Biochem., 121: 257-262, 1982.) of the method of Muller (Muller, R.
# Calculation of average antibody affinity in anti-hapten sera from data obtained by competitive radioimmunoassay. J. Immunol. Methods, 34: 345-352, 1980.). Kaff=^1/(It−Tt)(1−[…]+0.5b^2) where It is the inhibitor concentration at 50% inhibition of PIF binding; Tt the total PIF concentration; b the fraction of PIF bound in the absence of inhibitor.
compound,measurement,value
CO[C@@H]1O[C@H](CO)[C@H](O)[C@H](O[C@@H]2O[C@@H](C(=O)O)[C@@H](OC)[C@H](O)[C@H]2O)[C@H]1NC(C)=O [dermatan],inhibition of binding of PIF to receptors on C2C12 membranes,not
